Laboratory results as given in paper PMC7073074.
Results are given in words; binding and its absence hold for the method and conditions named. Binding seen in cells or lysates may run through a third protein. A yes stands for co-enrichment or nearness to the bait. Other partners may have been found. Where a sequence is shown, tags or fusion partners need not be part of it.

T1: FLAG-tagged coronin A (Dictyostelium discoideum) (UniProt P27133)
T1 sequence: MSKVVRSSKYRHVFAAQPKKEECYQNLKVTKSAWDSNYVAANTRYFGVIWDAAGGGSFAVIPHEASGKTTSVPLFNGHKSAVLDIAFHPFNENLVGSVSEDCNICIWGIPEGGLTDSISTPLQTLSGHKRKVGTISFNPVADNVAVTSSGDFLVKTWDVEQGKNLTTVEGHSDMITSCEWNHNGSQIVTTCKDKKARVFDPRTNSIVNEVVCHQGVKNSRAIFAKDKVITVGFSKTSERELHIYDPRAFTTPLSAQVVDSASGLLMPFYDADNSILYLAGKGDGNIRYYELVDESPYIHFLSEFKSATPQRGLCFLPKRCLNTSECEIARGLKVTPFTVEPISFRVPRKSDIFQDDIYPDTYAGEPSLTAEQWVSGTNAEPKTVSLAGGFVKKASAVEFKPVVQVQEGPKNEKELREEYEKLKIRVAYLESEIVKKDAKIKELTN


Legend:
[1] = target: T1, FLAG-tagged coronin A (Dictyostelium discoideum); assay: affinity purification with mass spectrometry; anti-FLAG M2 on lysates of cells with FLAG-CorA or FLAG-CorAΔCC against untagged CorA; low salt TBS, 1% Triton X-100; cells harvested at 48 h
[2] = target: T1, FLAG-tagged coronin A (Dictyostelium discoideum); assay: affinity purification with mass spectrometry; anti-FLAG M2 on lysates of corA- cells with FLAG-CorA against cells with untagged CorA; low salt TBS (25 mM NaCl), 1% Triton X-100, 4 °C; samples of all time points pooled; cutoff log2ratio > 1.5, q-value < 0.05

| binding [1] | binding [2] | Binder |
| --- | --- | --- |
| binds | binds | fimbrin (protein, UniProt P54680 1-610) MTNFSESEISEFKASFNQFDENGDGQISALELQKILTKCGEKVTGVEVRDMIKEVDTDGNGSIDFKEFLQVMQKARQHSANASPAFASAVKKVGAVNTIGGYSGSTASGVQHSYSDEEKVAYIDWINNCLAKDVDLKSRLPIPEDGDKFFAACNDGLLLCKLINDAVPDTIDERVLNKKNLNAFRINENQVLCINSAKAIGCNVVNIGAGDLVEGRAHLIMGLTWQIIKIGLFARINLTNHPELYRLLHDGETIEDLLKLPVEEILLRWFNYHLAAAGSQRRVKNFSGDIKDSECYTILLKQIAPKDAGVETSALNISNLDQRAVKVLENADKLGCKKFLKPKDIVTGFQKLNLAFVANLFNTHPALEPVEDVVIIEETREEKTFRNWMNSLGVDPFVNNLYEGTYDGLILIQLFDKIYPGLVDHKKVNYPPYKAMGAEMKKIENCNYAIQLGKDCKYSLVGIDGKNVYDKNKTLTLSILWQLMRGHVISILTALSGSGKPIADADIVNWTNSKLSAAGKKQISGFKDSTISTGIPILDVIEAVRPGSVDPALVATSGSAEDNLLNAKLAVSTARKVGAVVFALPEDIVEVKPKMVLTLFASLWQVEMTK |
| – | binds | myosin-K heavy chain (protein, UniProt Q9XXV8 1-858) MFRLFSSGVDDLVLVSNPSNGEVTSQIGARFDRELIYTNIGEVLIAVNPYKALPITGPEFIKLYQNASGSDASPHIYALAERAYRRMVDENESQCVIISGESGAGKTVSAKLILQYVTSVSPNNSSGGGIGGSGGGNGGIPQYDGGSDDRPSPPMGRGMGMPGMVGRGGLPTRGGGPPSRGGGPPPTRGRGGPPPPIPQNRGAPPPVSNGGAPPPVARGPVAPPPTRGAPPTRGGGPANRGGRGGGPPPVSTSRGGGGYGGSSKTVDVEHIKKVILDSNPLMEAIGNAKTVRNDNSSRFGKYLEIQFDDNNAPVGGLISTFLLEKTRVTFQQKNERNFHIFYQMLGGLDQTTKSEWGLTQATDFYYLAQSKCTTVEDVDDGKDFHEVKAAMETVGISRDEQTEIFRILAAILHVGNIRFQGEAPASVIDETPLQWAASLLGCDPTFLCQSLNHRQIQSGSARHTQYQVPQNPDQSAGLRDALAKTLYERIFDFIVARVNKAMSFSGNCKVIGVLDIYGFEVFERNSFEQFCINYVNERLQQIFIDLTVRGEQREYHEEGMKWKDISFFDNKIVVDLIDGNKPPGIMRVLDDVCKTVHAVDSAAADIKFMEKLIHSIQSHPHLVISNTGSSADEFTIKHYAGEVSYSIEEFCFKNNDNLYASIVGCLQNSTYQFIVSLFPENIQDNKQAPTTSSFKIRQSSSYLVTRLSACTPHYIRCIKPNDKKQPMNFVSSRVEHQVKYLGILENIKVKRSGYAYRQLKDIFLNRFGKIMDVQPRNVQEFVEYITRTHKDINADEFEEGKTKIFVKNPETIFVMEDLLMQKIDPIGYKNRVQAYKENEKLAQMKQGKHSMKQKCLIQ |
